Laboratory results from PMC7704642.
Results are given in words; binding and its absence hold for the method and conditions named. Binding calls can cover weak binding; strength is not graded here.

Amino acid sequences for entries named in this document (tags omitted). A change or cut given only in a name is not applied to a line headed by its entry.
UniProt Q5JIY4: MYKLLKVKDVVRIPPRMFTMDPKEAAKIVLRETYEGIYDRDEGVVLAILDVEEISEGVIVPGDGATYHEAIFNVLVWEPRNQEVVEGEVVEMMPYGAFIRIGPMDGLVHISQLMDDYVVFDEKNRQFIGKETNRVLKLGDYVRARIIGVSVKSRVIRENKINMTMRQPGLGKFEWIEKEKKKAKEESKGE

Legend:
[1] = biological target: RpoE, stalk subunit of Thermococcus kodakarensis RNA polymerase (Thermococcus kodakarensis) (UniProt Q5JIY4); test: cryo-EM structure; RNAP–TFEα binary complex: 3 nmole RNAP mixed with 5-fold molar excess of TFEα at room temperature for 1 h, Superose 6 in 10 mM Tris-HCl (pH 8.0), 400 mM NaCl, 5 mM DTT, 1% glycerol, 0.1 mM EDTA; peak fraction used for EM; both purified
[2] = biological target: RpoB, second largest subunit of Thermococcus kodakarensis RNA polymerase (Thermococcus kodakarensis); test: cryo-EM structure; RNAP–TFEα–DNA ternary complex: 3 nmol RNAP–TFEα binary complex mixed with 3-fold molar excess of annealed gdh promoter fork-junction DNA at room temperature for 30 min, Superose 6 in 10 mM Tris-HCl (pH 8.0), 400 mM NaCl, 5 mM DTT, 1% glycerol, 0.1 mM EDTA; both purified
[3] = biological target: RpoE, stalk subunit of Thermococcus kodakarensis RNA polymerase (Thermococcus kodakarensis) (UniProt Q5JIY4); test: as above

binding [1]: binds | binding [2]: binds | binding [3]: binds
B1: Thermococcus kodakarensis TFEα (protein, UniProt Q5JDD5 1-185)
chain: MAKRKNKELLEIAQEIGGEEAVEVVKALEKMKEATDEELAEATGIRVNTVRRILYMLNDEGLADFKRIRDPETGWYYYYWRLETKKLPEIIRSRKMAELKKLKEMLEEETSEIYYWCGTEGHPKLTFDEAMEYEFQCPICGKMLMQYDNTHIIEELKRRIEELEIELGLKKKPRKTSKKKKSRSE
